Data as given in PubChem BioAssay AID1259283 (Sanger Institute, 2017)

Screen: 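Kinases needed for HT115 growth and partners for drug synergy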 (primary screen)
Cell system: HT115 colorectal cancer cells
Reagents: siRNA pool against human genes
Treatment: anchor drug given one day after siRNA: BYL719 at 1 µM, cetuximab at 5 µg/ml, trametinib at 10 nM, or DMSO vehicle alone
Detection: 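Per-drug synergy scores plus replicate-mean viability relative to non-targeting pool #2 wells, also expressed as a robust z-score based on control wells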
Scale: robust z-score, knock-down alone: higher = more viable cells after knock-down; viability, DMSO vs non-targeting control: higher = more viable cells; synergy score with BYL719: higher = stronger synergy with drug (synthetic lethal)
Active means: 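a gene counts as essential when its robust z-score with knock-down alone is below -3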
Meaning of the calls: active = essential (z below -3, no drug); inactive = no change without drug
Shown is an unselected part of 794 deposited reagents. 14 of them (1.8%) were called active. 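Calls reflect only viability loss without drug; drug synergy does not enter the call.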 No viability above 1 is reported: the scale is capped. Not all columns of the deposit are shown. The record does not give: the amount of reagent, the time to read-out.

gene knocked down	robust z-score, knock-down alone	viability, DMSO vs non-targeting control (fraction of control)	synergy score with BYL719	outcome
STK3 (serine/threonine kinase 3)	0.789	1	0.0648	inactive
AKT3 (AKT serine/threonine kinase 3)	-0.244	0.905	-0.0889	inactive
ALPK3 (alpha kinase 3)	0.229	0.948	-0.0567	inactive
CDKN1C (cyclin dependent kinase inhibitor 1C)	-0.272	0.902	-0.0224	inactive
DGKA (diacylglycerol kinase alpha)	-0.342	0.895	0.0495	inactive
PIK3R5 (phosphoinositide-3-kinase regulatory subunit 5)	-1.19	0.817	0.0182	inactive
CLK2 (CDC like kinase 2)	-0.0629	0.921	0.00258	inactive
PDK3 (pyruvate dehydrogenase kinase 3)	0.169	0.943	-0.0784	inactive
CHEK2 (checkpoint kinase 2)	0.789	1	0.0366	inactive
GRK2 (G protein-coupled receptor kinase 2)	0.0744	0.934	0.127	inactive
MKNK2 (MAPK interacting serine/threonine kinase 2)	0.323	0.957	0.0561	inactive
GRK7 (G protein-coupled receptor kinase 7)	-0.724	0.86	-0.0509	inactive
PAK5 (p21 (RAC1) activated kinase 5)	-0.555	0.876	-0.0833	inactive
PKIA (cAMP-dependent protein kinase inhibitor alpha)	0.068	0.933	0.0578	inactive
PIM3 (Pim-3 proto-oncogene, serine/threonine kinase)	0.789	1	0.0684	inactive
CHKB (choline kinase beta)	0.651	0.987	-0.0348	inactive
ATM (ATM serine/threonine kinase)	-0.353	0.894	0.0612	inactive
BUB1 (BUB1 mitotic checkpoint serine/threonine kinase)	0.131	0.939	0.0689	inactive
DCK (deoxycytidine kinase)	-1.01	0.834	-0.0502	inactive
GNE	-0.448	0.886	-0.053	inactive

Quoted from the entries so far for reference:
gene knocked down	robust z-score, knock-down alone	viability, DMSO vs non-targeting control (fraction of control)	synergy score with BYL719	outcome
PAK5 (p21 (RAC1) activated kinase 5)	-0.555	0.876	-0.0833	inactive
PKIA (cAMP-dependent protein kinase inhibitor alpha)	0.068	0.933	0.0578	inactive
